PubChem BioAssay AID2685 (National Center for Advancing Translational Sciences (NCATS), 2010)
This is one part of the list. Shown are side measurements of this screen, not its main read-out; they come without a call. The list favours compounds with an active or inconclusive main result. Words in brackets tell the shape of the fitted curve; partial curves, single points and poor fits give uncertain potencies.

Test: qHTS Assay for Lipid Storage Modulators in Drosophila S3 Cells;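 on cell number change: cells counted by Cell Tracker Red CMTPX staining in the red channel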
Settings: BODIPY lipid droplet fluorescence, 18-24 h; for cell number change: measured here: cell count max response, cells fed with added oleic acid
Method in brief: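 Laser-scanning cytometry quantifies lipid droplet accumulation (500–530 nm total intensity; droplet/cell object ratio) in oleic acid-fed (400 uM added) Drosophila S3 cells treated with a concentration series. 20 uM Triacsin C defined 100% inhibition.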

[1] = measured here: lipid fluorescence (Fed channel) AC50, cells fed with added oleic acid
[2] = measured here: cell number channel AC50, cells fed with added oleic acid

Compound | cell number change [%] | AC50 [1] | AC50 [2]
CCN1CCCC1CNS(=O)(=O)c1ccc(F)c(Cl)c1 (stereo not drawn) | 16.8 | 0.58 µM [rising, single point] | –
CCOC(=O)C1=C(CSc2nccn2C)NC(=O)NC1c1cc(C)ccc1C (stereo not drawn) | 54.3 | 5.8 µM [rising, full curve] | 4.61 µM [rising, full curve]
CCN(CC(=O)Nc1cc(S(=O)(=O)N2CCOCC2)ccc1Cl)Cc1ccccc1 | -23.4 | 4.61 µM [falling, partial curve] | –
COc1ccc2c(c1)[C@H]1[C@H](CO2)[C@H](c2ccccc2)[C@]2(C)C(=O)N[C@H](C)C(=O)N12 | -3.05 | 25.9 µM [rising, single point] | –
CC(C)C(c1nnnn1C1CCCC1)N(C)C1CCCCC1 (stereo not drawn) | – | 29.1 µM [falling, single point] | –
COc1ccc(CNCc2c(O)c(Cl)cc3c(C)c(C)c(=O)oc23)c(OC)c1 | -7.04 | 20.6 µM [rising, single point] | –
Cc1ccc(C2=NN(C(=O)c3ccccc3F)C(c3ccccc3F)C2)cc1 (stereo not drawn) | 116 | 29.1 µM [rising, single point] | 23.1 µM [rising, partial curve]
COc1ccc([N+](=O)[O-])cc1N(CC(=O)N1CCCCC1)S(C)(=O)=O | -27 | 23.1 µM [falling, partial curve, poor fit] | –
Cn1c(C(=O)N2CCCC(Nc3ccc(F)cc3)C2)cc2ccccc21 (stereo not drawn) | – | 4.11 µM [rising, partial curve] | –
CN(C)CCCNC(=S)N1CCN(c2nc(-c3ccccc3)cs2)CC1 | -2.91 | – | –
Cc1cccc(OCC(=O)NCCNC(=O)c2ccncc2)c1 | -11.4 | – | –
CCOC(=O)c1cc(C(C)C)sc1NC(=O)COC(=O)CCS(=O)(=O)c1ccccc1 | 48.7 | 3.66 µM [rising, single point] | 7.31 µM [rising, partial curve]
CCc1nnc(NC(=O)CC23CC4CC(CC(C4)C2)C3)s1 | -2.59 | 0.461 µM [falling, single point] | –
CCCN(C(=O)COC(=O)CCOc1ccccc1C)c1c(N)n(Cc2ccccc2)c(=O)[nH]c1=O | -13 | – | –
CC1CN(C(=O)COC(=O)c2ccc(O)cc2)CC(C)O1 (stereo not drawn) | 9.46 | – | –
O=C1CC(c2ccc(F)cc2)Cc2nc(NCC3CCCO3)ncc21 (stereo not drawn) | 4.73 | 18.4 µM [rising, single point] | –
FC(F)(F)c1ccccc1CN1CCCC(N2CCN(c3ccccc3)CC2)C1 (stereo not drawn) | -13.2 | 5.8 µM [rising, full curve] | –
Cc1c(C(=O)N2C[C@@H](C)O[C@@H](C)C2)oc2c(F)cccc12 | -13.1 | 0.58 µM [falling, single point] | –
O=c1[nH]c(SCc2cccc(F)c2)nc2c1CCCC2 | – | 0.116 µM [rising, full curve, poor fit] | 0.103 µM [rising, full curve, poor fit]
COc1ccccc1OCC(O)Cn1c(=N)n(CCN2CCCCC2)c2ccccc21 (stereo not drawn) | – | – | 6.51 µM [rising, single point]
CCOC(=O)N1CCC(NC(=O)CS(=O)Cc2nc(-c3ccc(Cl)cc3)oc2C)CC1 (stereo not drawn) | -12.2 | 18.4 µM [falling, partial curve, poor fit] | –

Compound | cell number change [%] | AC50 [1] | AC50 [2]
COc1ccc(/C=N/Nc2ncc(C(F)(F)F)cc2Cl)cc1OC | 45.2 | 6.51 µM [rising, single point] | 4.11 µM [rising, full curve]
O=C(Nc1nnc(-c2cccs2)o1)c1ccc(S(=O)(=O)N2CCOCC2)cc1 | 0.104 | 1.64 µM [rising, partial curve] | 2.06 µM [rising, single point]
CCN(CC)S(=O)(=O)c1cccc(C(=O)Nc2ccc(C#N)cc2)c1 | -7.51 | 0.0291 µM [rising, full curve, poor fit] | –
Cc1nc(NC(=O)C2CCCCC2C(=O)O)sc1C (stereo not drawn) | 23.1 | 0.082 µM [rising, full curve, poor fit] | –
O=S(=O)(Nc1c(F)cccc1F)c1ccc(Cl)nc1 | -69 | 25.9 µM [falling, partial curve] | 29.1 µM [falling, single point]
Cc1nc(NS(=O)(=O)c2ccccc2)sc1C(C)(C)C | 9.99 | 2.31 µM [rising, full curve, poor fit] | –
Cc1cc(C(=O)N2CCOCC2)n(-c2ccccc2)n1 | 33.7 | – | 6.51 µM [rising, single point]
COc1ccc(C(=O)CCNc2ccc(F)cc2)cc1 | 27.5 | 2.59 µM [rising, partial curve, poor fit] | 1.84 µM [rising, full curve, poor fit]
COc1ccc(C(=O)N/C(=C\c2cccc3ccccc23)C(=O)N2CCN(C)CC2)cc1OC | 2.49 | – | –
O=C(CCc1ccccc1)NCCc1nc2ccccc2[nH]1 | 82.2 | 29.1 µM [rising, single point] | 14.6 µM [rising, partial curve, poor fit]
Cc1ccc2nc(Cl)c3nnnn3c2c1 | -59.6 | 16.4 µM [falling, partial curve] | 16.4 µM [falling, partial curve]
O=C(COCc1cc(-c2ccc3c(c2)OCO3)on1)N1CCN(c2cccc(Cl)c2)CC1 | 42.4 | – | 1.64 µM [rising, partial curve]
Cc1cc(C)c(NC(N)=S)c(C)c1 | -14 | 0.164 µM [falling, full curve, poor fit] | –
COc1ccc(-c2noc(C3CCCN(C(=O)c4ccccc4OC)C3)n2)cc1 (stereo not drawn) | -13 | – | –
CS(=O)(=O)Nc1ccc(C(=O)N2CCCC2)cc1 | – | 9.2 µM [rising, single point] | –
Cc1ccc(N(C)C(=O)N2CCN(S(=O)(=O)c3ccc(C)cc3)CC2)cc1 | 0.921 | 16.4 µM [rising, single point] | –
Cc1cc(/C=N/Nc2ccc([N+](=O)[O-])cn2)c(C)n1-c1cccc(C(=O)O)c1 | 15 | 0.00461 µM [rising, full curve, poor fit] | –
O=C(NC1CCC(=O)N(CCOc2ccccc2)CC1)OCc1ccccc1 (stereo not drawn) | 23.3 | 2.06 µM [rising, partial curve] | –
Cc1cc(=O)oc(C)c1C(=O)N1CCN(C(c2ccccc2)c2ccccc2)CC1 | -5.61 | 0.731 µM [rising, full curve, poor fit] | –
COC(=O)Nc1ccc(SCC(=O)c2ccccc2)cc1 | 27.4 | 0.291 µM [rising, full curve] | 0.0517 µM [rising, full curve]
O=C(Oc1ccc(-c2nnco2)cc1)C1CCN(C(=O)c2ccc(F)cc2)CC1 | -6.91 | 0.731 µM [falling, single point] | –

An excerpt from above in order of length of the SMILES, high to low:
Compound | cell number change [%] | AC50 [1] | AC50 [2]
O=C(COCc1cc(-c2ccc3c(c2)OCO3)on1)N1CCN(c2cccc(Cl)c2)CC1 | 42.4 | – | 1.64 µM [rising, partial curve]
COc1ccccc1OCC(O)Cn1c(=N)n(CCN2CCCCC2)c2ccccc21 (stereo not drawn) | – | – | 6.51 µM [rising, single point]
COc1ccc(/C=N/Nc2ncc(C(F)(F)F)cc2Cl)cc1OC | 45.2 | 6.51 µM [rising, single point] | 4.11 µM [rising, full curve]
COC(=O)Nc1ccc(SCC(=O)c2ccccc2)cc1 | 27.4 | 0.291 µM [rising, full curve] | 0.0517 µM [rising, full curve]

Next records

Compound | cell number change [%] | AC50 [1] | AC50 [2]
CCCCn1nnnc1SCC(=O)Nc1sc2c(c1C#N)CCCC2 | 8.56 | 0.259 µM [rising, full curve, poor fit] | –
O=S1(=O)CCC(NCC2CCCO2)C1 (stereo not drawn) | -5.79 | – | –
Cc1[nH]n(-c2ccccc2)c(=O)c1N=Nc1c(Cl)cccc1Cl | -0.338 | – | –
CC(Oc1ccc(Cl)cc1Cl)C(=O)OCC(=O)c1c(N)n(C)c(=O)n(C)c1=O (stereo not drawn) | 24.2 | – | 0.013 µM [rising, full curve, poor fit]
O=C(NNc1cccc(Cl)n1)Nc1ccccc1F | 0.226 | 29.1 µM [rising, single point] | –
NC(=O)c1nsc(C(=O)N(CC(=O)NC2CCCCC2)c2ccc(Cl)cc2)c1N | – | 32.6 µM [falling, partial curve] | –
COc1ccccc1N(Cc1ccccc1)S(=O)(=O)c1cccc(C(=O)NC2CC(C)(C)NC(C)(C)C2)c1 | -9.19 | 8.2 µM [falling, partial curve] | 0.13 µM [falling, full curve, poor fit]
CC(C)C(=O)NC(=O)COC(=O)/C=C/c1cccs1 | 28.9 | 35.5 µM [rising, single point] | –
Cc1ccc(-c2nc3ccccc3nc2Cl)cc1 | 19 | – | –
COC(=O)CSc1nc2nc(C)cc(C)n2n1 | 13.6 | 3.66 µM [falling, full curve] | –
CCCCSc1nnc(CSc2ncccn2)n1C | 30 | 3.66 µM [rising, full curve, poor fit] | –
COC(=O)c1ccc(-c2nc(-c3cccs3)no2)cc1 | – | 0.651 µM [rising, full curve, poor fit] | –
COc1ccccc1C(CNc1nc(C(F)(F)F)nc2ccccc12)N(C)C (stereo not drawn) | 8.82 | – | –
Clc1ccc2ccc3cccnc3c2n1 | -22.5 | – | –
CCOc1ccc(N2C(=O)CCC2=O)cc1 | -28.8 | 0.82 µM [falling, full curve] | 0.517 µM [falling, full curve]
COc1ccc(C2=NCCc3cc(OC)c(OC)cc32)cc1OC | -15.1 | 2.06 µM [falling, partial curve] | –
Cc1ccc(NC(=O)CCS(=O)(=O)c2cc3c(cc2Cl)NC(=O)CO3)cc1 | -4.13 | 29.1 µM [rising, single point] | –
O/N=C/c1cn(-c2ccc(Cl)cc2)nn1 | 24.9 | – | –
CCc1nnc(NC(=O)c2cccc(S(=O)(=O)N3CC(c4ccccc4)CC3=O)c2)s1 (stereo not drawn) | 3.3 | 0.651 µM [falling, single point] | –
Cc1cccc(C)c1NC(=O)COC(=O)CN1C(=O)C2CCCCC2C1=O (stereo not drawn) | 16.4 | 3.66 µM [rising, full curve, poor fit] | –
